# Data source: PubChem BioAssay AID602196 (INSERM, 2012)
# Screen: 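Modifiers of cisplatin sensitivity in A549 cells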
# Cells: human A549 lung cancer cells
# Reagents: siRNA pair against human genes
# Timing: 48 h transfection before cisplatin; time from cisplatin to read-out not stated
# Conditions: cisplatin at a dose killing half of control-siRNA cells; exact dose and duration not given
# Detection: 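Shift in cisplatin death relative to control siRNA, from -50 (all cells die) to +50 (no cells die); siRNAs harmful on their own scored 0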
# Scale: two-siRNA summed score (-2 to +2): higher = both siRNAs protect from cisplatin killing; -2 means both sensitise
# Call rule: 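Each siRNA scores 0 if harmful alone by LDH or WST-1, otherwise +1 if it reduces and -1 if it increases cisplatin killing; a gene is active when both siRNAs agree (sum +2 or -2)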
# Calls: active = both siRNAs shift cisplatin killing the same way; inactive = no consistent shift, or siRNA harmful alone
# In all, the deposit lists about 23,000 reagents; below is a part drawn at random. Over the whole deposit, 455 (2%) got an active call. 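Active includes both protection and sensitisation; some change values fall well beyond the stated -50 to +50 range.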 Entries without a mark were called inactive. Not all columns of the deposit are shown. The record does not give: the amount of reagent.
The first 9 records, ahead of the listing:
Gene,two-siRNA summed score (-2 to +2)
YAE1,0
PLXNA1,0
MITF,0
OLIG3,0
LOC442480,-1
GMDS,0
CUL9,0
INE1,-1
NOBOX,0

The listing, from the start:
Gene,two-siRNA summed score (-2 to +2)
YAE1,0
PLXNA1,0
MITF,0
OLIG3,0
LOC442480,-1
GMDS,0
CUL9,0
INE1,-1
NOBOX,0
LOC442593,1
CPNE4,0
LOC440275,0
GRAP,0
MORN1,0
LRRC47,1
GOLGA8VP,0
RAI1,0
LOC392360,1
LOC400575,0
SKA1,0
TEAD2,0
CLDN11,1
H4C14,0
ANKRD10,1
LOC392895,0
ZNF182,0
SPEF2,0
LOC442199,0
GSG1,0
TNFSF9,0
APOL1,0
RAB6C,1
DCAF4,0
LOC387864,0
CLHC1,0
POFUT1,-1
GARS1,-1
C2CD4C,1
HSCB,0
ABAT,0
EN1,-1
SLC36A1,1
LOC440053,0
APOBR,-1
GTPBP2,0
GRPEL2,0
SLC6A12,0
LOC440659,0
PCDHB9,0
TAFA2,0
TMEM121,0
WHR1,0
LOC441360,0
LILRP2,0
TMPRSS11F,2 (active)
SERPINI1,0
SLC25A10,0
NDUFB6,1
LOC400933,0
HSPA8P11,0
WAC,1
SRY,1
CD9,-1
LOC442615,0
HLA-DQA1,0
DGKD,1
PIWIL3,0
COL6A2,0
C5AR2,0
LOC440269,1
WASL,0
ELOC,0
LBX1,1
